{"source": "patent US11147819B2", "about": "“EZH2 inhibitors for treating cancer” (Epizyme, Inc., priority 2016, dated 2021)", "assay_in_all_cases": "cells", "key": {"[1]": {"tested_on": "WSU-DLCL2", "settings": "Homo sapiens"}, "[2]": {"tested_on": "KARPAS-422", "settings": "Homo sapiens"}, "[3]": {"tested_on": "SU-DHL-10", "settings": "Homo sapiens"}, "[4]": {"tested_on": "SU-DHL-6", "settings": "Homo sapiens"}, "[5]": {"tested_on": "OCI-LY19", "settings": "Homo sapiens, OCI-LY19, 336 h, read-out: IC50 Taz 14d"}, "[6]": {"tested_on": "HT", "settings": "Homo sapiens"}, "[7]": {"tested_on": "Farage", "settings": "336 h, read-out: IC50 Taz 14d"}, "[8]": {"tested_on": "OCI-LY7", "settings": "Homo sapiens"}, "[9]": {"tested_on": "SU-DHL5", "settings": "Homo sapiens"}, "[10]": {"tested_on": "Toledo", "settings": "Homo sapiens"}, "[11]": {"tested_on": "TMD8", "settings": "Homo sapiens"}, "[12]": {"tested_on": "OCI-LY3", "settings": "Homo sapiens"}, "[13]": {"tested_on": "SU-DHL2", "settings": "Homo sapiens"}}, "note": "Read-outs that look alike come from different tables or passages of the source.", "data": [{"smiles": "CCN(c1cc(-c2ccc(CN3CCOCC3)cc2)cc(C(=O)NCc2c(C)cc(C)[nH]c2=O)c1C)C1CCOCC1", "note": "[tazemetostat]", "values": [{"measurement": "IC50", "setting": "[1]; WSUDLCL2, 168 h, read-out: IC50 Taz 7d", "value": 100, "unit": "nM"}, {"measurement": "IC50", "setting": "[1]; WSUDLCL2, 336 h, read-out: IC50 Taz 14d", "value": 86, "unit": "nM"}, {"measurement": "IC50", "setting": "[2]; KARPAS-422, 168 h, read-out: IC50 Taz 7d", "value": 100, "unit": "nM"}, {"measurement": "IC50", "setting": "[2]; KARPAS-422, 336 h, read-out: IC50 Taz 14d", "value": 18, "unit": "nM"}, {"measurement": "IC50", "setting": "[3]; SU-DHL10, 168 h, read-out: IC50 Taz 7d", "value": 50, "unit": "nM"}, {"measurement": "IC50", "setting": "[3]; SU-DHL10, 336 h, read-out: IC50 Taz 14d", "value": 58, "unit": "nM"}, {"measurement": "IC50", "setting": "[4]; SU-DHL-6, 168 h, read-out: IC50 Taz 7d", "value": 100, "unit": "nM"}, {"measurement": "IC50", "setting": "[4]; SU-DHL-6, 336 h, read-out: IC50 Taz 14d", "value": 47, "unit": "nM"}, {"measurement": "IC50", "setting": "[5]", "value": 6.2, "unit": "µM"}, {"measurement": "IC50", "setting": "[6]; 168 h, read-out: IC50 Taz 7d", "value": 500, "unit": "nM"}, {"measurement": "IC50", "setting": "[6]; 336 h, read-out: IC50 Taz 14d", "value": 140, "unit": "nM"}, {"measurement": "IC50", "setting": "[7]", "value": 99, "unit": "nM"}, {"measurement": "IC50", "setting": "[8]; OCI-Ly7, 168 h, read-out: IC50 Taz 7d", "value": 1500, "unit": "nM"}, {"measurement": "IC50", "setting": "[8]; OCI-Ly7, 336 h, read-out: IC50 Taz 14d", "value": 1400, "unit": "nM"}, {"measurement": "IC50", "setting": "[9]; SU-DHL-5, 168 h, read-out: IC50 Taz 7d", "value": 3800, "unit": "nM"}, {"measurement": "IC50", "setting": "[9]; SU-DHL-5, 336 h, read-out: IC50 Taz 14d", "value": 2100, "unit": "nM"}, {"measurement": "IC50", "setting": "[10]; 168 h, read-out: IC50 Taz 7d", "value": "> 10", "unit": "µM"}, {"measurement": "IC50", "setting": "[10]; 336 h, read-out: IC50 Taz 14d", "value": 7.6, "unit": "µM"}, {"measurement": "IC50", "setting": "[11]; TMD8, 168 h, read-out: IC50 Taz 7d", "value": 5.5, "unit": "µM"}, {"measurement": "IC50", "setting": "[11]; TMD8, 336 h, read-out: IC50 Taz 14d", "value": 2.6, "unit": "µM"}, {"measurement": "IC50", "setting": "[12]; OCI-Ly3, 168 h, read-out: IC50 Taz 7d", "value": 5.1, "unit": "µM"}, {"measurement": "IC50", "setting": "[12]; OCI-Ly3, 336 h, read-out: IC50 Taz 14d", "value": 820, "unit": "µM"}, {"measurement": "IC50", "setting": "[13]; SU-DHL-2, 168 h, read-out: IC50 Taz 7d", "value": 1.3, "unit": "µM"}, {"measurement": "IC50", "setting": "[13]; SU-DHL-2, 336 h, read-out: IC50 Taz 14d", "value": 230, "unit": "µM"}]}]}
